Laboratory results published in the supplement of paper PMC7125110.
± gives the standard error. Many of these values have a large error.

B1: glmS ribozyme (parent)
chain: AUAAAAGCGCCAGAACUACAGAAAUGUAGUUGACGAGGAGGAGGUUUAUCGAAUUUUCGGCGGAUGCCUCCAAA

Variants of: B1
Assay: self-cleavage kobs at 640 uM GlcN6P; higher = faster cleavage; RNA array
Details: with glucosamine-6-phosphate
Summary of the method: (§1)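 Glucosamine-6-phosphate, from 40 μM to 10 mM in HEPES/KCl/Mg(OAc)2 buffer, was flowed over sequenced MiSeq chips carrying barcoded ribozyme variants transcribed in situ by E. coli RNA polymerase. A hybridised Cy3 probe tracked the variants at 37 °C as tiles were imaged over ~14 h. kobs, kcat and KM were obtained by fitting normalised per-tile medians to exponential decays and then applying weighted Michaelis–Menten fits across concentrations.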

| Variant | self-cleavage kobs at 640 uM GlcN6P |
| --- | --- |
| G29U U55G G66U C67U | 4.09e-05 ± 2.7e-05 s⁻¹ |
| A14G A42G A52U | 3.81e-05 ± 3.3e-05 s⁻¹ |
| U54C C68A | 2.31e-05 ± 1.6e-05 s⁻¹ |
| G29U C68G | 2.58e-05 ± 1.5e-05 s⁻¹ |
| G9U C11G G29U G63C C70U | 3.07e-05 ± 2.5e-05 s⁻¹ |
| C50G U56G G59U | 5.46e-05 ± 3.4e-05 s⁻¹ |
| C61G U69A | 3.11e-05 ± 1.7e-05 s⁻¹ |
| C10G C50G U55A | 7.04e-05 ± 4.7e-05 s⁻¹ |
| U31A A48G | 1.83e-05 ± 1.7e-05 s⁻¹ |
| A33U C71G | 1.69e-05 ± 1.6e-05 s⁻¹ |
| G7A A14G G38A G44C A52G C67G | 4.16e-05 ± 2.9e-05 s⁻¹ |
| A14U C50U C68A | 4.28e-05 ± 2.4e-05 s⁻¹ |
| A14U C50U C68U | 3.44e-05 ± 2.4e-05 s⁻¹ |
| U31C G66U | 2.85e-05 ± 1.4e-05 s⁻¹ |
| G51U A64C U69G | 3.57e-05 ± 3.2e-05 s⁻¹ |
| C8G C10G G13C C58G C68G | 0.00285 ± 0.0016 s⁻¹ |
| C10U C67G | 1.76e-05 ± 1.3e-05 s⁻¹ |
| U31C A36C U54G A64G C70A | 4.3e-05 ± 3.6e-05 s⁻¹ |
| C50U G51U C61A | 2.75e-05 ± 2.6e-05 s⁻¹ |
| G32A U69A | 1.72e-05 ± 1.3e-05 s⁻¹ |
| A39U G66A C68G | 2.57e-05 ± 2e-05 s⁻¹ |
| A14C U45A U57A | 2.22e-05 ± 2.1e-05 s⁻¹ |
| C16A A36C G51A A53U U69G | 0.000755 ± 0.00052 s⁻¹ |
| A14C U30G A42G A53C | 2.91e-05 ± 1.6e-05 s⁻¹ |
| U46G C61G C71G | 0.000145 ± 7.6e-05 s⁻¹ |
| G59U U69A | 2.41e-05 ± 1.7e-05 s⁻¹ |

Variants of: B1
Assay: self-cleavage kobs at 2500 uM GlcN6P; higher = faster cleavage; RNA array
Details: with glucosamine-6-phosphate
Summary of the method: as §1

| Variant | self-cleavage kobs at 2500 uM GlcN6P |
| --- | --- |
| G29U U55G G66U C67U | 2.18e-05 ± 2e-05 s⁻¹ |
| U54C C68A | 3.25e-05 ± 1.7e-05 s⁻¹ |
| G32U U57A | 1.88e-05 ± 1.2e-05 s⁻¹ |
| C34G C50G G62A | 3.46e-05 ± 3e-05 s⁻¹ |
| C58G C67U C70A | 3.5e-05 ± 2.3e-05 s⁻¹ |
| C11U U47G G66C | 3.01e-05 ± 2e-05 s⁻¹ |
| G37U C68A | 1.66e-05 ± 1.5e-05 s⁻¹ |
| C61G U69A | 2.39e-05 ± 1.9e-05 s⁻¹ |
| A52G U57A G66U | 2.98e-05 ± 1.6e-05 s⁻¹ |
| A14U C50U C68U | 7.55e-05 ± 4e-05 s⁻¹ |
| A48G C58A | 3.26e-05 ± 2.1e-05 s⁻¹ |
| A33U G41A U54G | 1.72e-05 ± 1.7e-05 s⁻¹ |
| U57A C58A C71U | 4.02e-05 ± 2.6e-05 s⁻¹ |
| C16A A33U | 1.7e-05 ± 1.3e-05 s⁻¹ |
| C11A U69G | 6.07e-05 ± 4.5e-05 s⁻¹ |
| G29A U31C G41U | 3.03e-05 ± 2.9e-05 s⁻¹ |
| G43C U55G U56G C67G | 4.49e-05 ± 2.6e-05 s⁻¹ |
| C16A C50G U55C G63C C70G | 0.000225 ± 0.00013 s⁻¹ |
| A12C U57G | 3.35e-05 ± 1.9e-05 s⁻¹ |
| C16A A36C G51A A53U U69G | 0.000127 ± 7.4e-05 s⁻¹ |
| C16A U46G C70G | 2.27e-05 ± 1.7e-05 s⁻¹ |
| A6G U30A C50G U55G | 6.4e-05 ± 3.3e-05 s⁻¹ |
| U54C C61U | 2.73e-05 ± 2.6e-05 s⁻¹ |
| A36U G51A A52U C68A C70U | 0.000115 ± 6.8e-05 s⁻¹ |
| G13C C67A | 1.62e-05 ± 1.2e-05 s⁻¹ |
| A12U G32A U47C | 3.78e-05 ± 2.1e-05 s⁻¹ |
| G7U G63A | 2.57e-05 ± 2.2e-05 s⁻¹ |
| U49C C50A C70A | 2.65e-05 ± 2.6e-05 s⁻¹ |
| C10A A14G A53C C70G | 3.99e-05 ± 2.8e-05 s⁻¹ |

Reformatted as labelled records: entries from further up
G29U U55G G66U C67U
  self-cleavage kobs at 2500 uM GlcN6P = 2.18e-05 ± 2e-05 s⁻¹
U54C C68A
  self-cleavage kobs at 2500 uM GlcN6P = 3.25e-05 ± 1.7e-05 s⁻¹
G32U U57A
  self-cleavage kobs at 2500 uM GlcN6P = 1.88e-05 ± 1.2e-05 s⁻¹
C34G C50G G62A
  self-cleavage kobs at 2500 uM GlcN6P = 3.46e-05 ± 3e-05 s⁻¹

Variants of: B1
Assay: self-cleavage kobs at 40 uM GlcN6P; higher = faster cleavage; RNA array
Details: with glucosamine-6-phosphate
Summary of the method: as §1

| Variant | self-cleavage kobs at 40 uM GlcN6P |
| --- | --- |
| G37A U46C | 1.58e-05 ± 1.2e-05 s⁻¹ |
| A36U C68G C71U | 3.54e-05 ± 2.1e-05 s⁻¹ |
| C58U G60A C67U C68A | 3.41e-05 ± 2.9e-05 s⁻¹ |
| U30C A39G | 2.23e-05 ± 2.2e-05 s⁻¹ |
| U47G C58A G59U C70G | 3.28e-05 ± 2.1e-05 s⁻¹ |
| C16A G38U C67G | 3.59e-05 ± 2.6e-05 s⁻¹ |
| C16A C67U | 2.35e-05 ± 1.6e-05 s⁻¹ |
| U46G C61G C71G | 3.21e-05 ± 2.3e-05 s⁻¹ |
| U31G A33U A48C U56G C67G C68A | 2.49e-05 ± 2e-05 s⁻¹ |

Variants of: B1
Assay: self-cleavage kobs at 160 uM GlcN6P; higher = faster cleavage; RNA array
Details: with glucosamine-6-phosphate
Summary of the method: as §1

| Variant | self-cleavage kobs at 160 uM GlcN6P |
| --- | --- |
| A36G U69C C71G | 3.59e-05 ± 2.6e-05 s⁻¹ |
| G13A A64G | 2.13e-05 ± 1.8e-05 s⁻¹ |
| C34G C50G G62A | 2.6e-05 ± 1.6e-05 s⁻¹ |
| G29U C68G | 2.25e-05 ± 1.5e-05 s⁻¹ |
| C16G U30A U55G | 2.97e-05 ± 2.3e-05 s⁻¹ |
| G37U C68A | 2.38e-05 ± 1.5e-05 s⁻¹ |
| C61G U69A | 2.26e-05 ± 1.6e-05 s⁻¹ |
| A33C A39G | 1.93e-05 ± 1e-05 s⁻¹ |
| A33C A39U | 2.35e-05 ± 1.2e-05 s⁻¹ |
| G29U G32U | 1.63e-05 ± 1e-05 s⁻¹ |
| G13U A53G C61A C71G | 3.03e-05 ± 2.3e-05 s⁻¹ |
| A12C G44A | 1.9e-05 ± 1.6e-05 s⁻¹ |
| U57G C68A C70U | 2.56e-05 ± 2e-05 s⁻¹ |
| U30A G66U | 2.11e-05 ± 1.5e-05 s⁻¹ |
| U55G U57A | 1.74e-05 ± 1.6e-05 s⁻¹ |
| U46A C70A | 2.02e-05 ± 1.9e-05 s⁻¹ |
| G40U A52G | 2.59e-05 ± 1.8e-05 s⁻¹ |
| A39U A48U | 2.7e-05 ± 1.7e-05 s⁻¹ |
| C11A U31A C50G C67G | 3.27e-05 ± 2.3e-05 s⁻¹ |

Quoted from the listing for reference:

| Variant | self-cleavage kobs at 160 uM GlcN6P |
| --- | --- |
| G29U G32U | 1.63e-05 ± 1e-05 s⁻¹ |
| G13U A53G C61A C71G | 3.03e-05 ± 2.3e-05 s⁻¹ |

Variants of: B1
Assay: self-cleavage kobs at 10000 uM GlcN6P; higher = faster cleavage; RNA array
Details: with glucosamine-6-phosphate
Summary of the method: as §1

| Variant | self-cleavage kobs at 10000 uM GlcN6P |
| --- | --- |
| A6C A14U | 1.03e-05 ± 9.9e-06 s⁻¹ |
| G7U C68A | 0.000352 ± 0.00028 s⁻¹ |
| G29U C68G | 1.86e-05 ± 1.3e-05 s⁻¹ |
| G7A G37C U69A | 2.46e-05 ± 1.8e-05 s⁻¹ |
| U47G C58A G59U C70G | 2.11e-05 ± 1.6e-05 s⁻¹ |
| A6G A15U G66A | 2.2e-05 ± 1.8e-05 s⁻¹ |
| C16A G38U C67G | 2.29e-05 ± 2.2e-05 s⁻¹ |
| U54C C61U | 2.44e-05 ± 2.1e-05 s⁻¹ |
